Measurements taken from PubChem BioAssay AID1487 (National Center for Advancing Translational Sciences (NCATS), 2009).
Hit rate of the full screen: of about 200,000 compounds, about 25 (0.01%) were called active. Inconclusive means that the source gave no clear call. Such entries were picked first, then a sample of the others. The call rests on the fitted dose curve; in most records, active means well fitted inhibition curve with a large enough effect in the signal ratio, with a control signal flat (not every such curve was filed as active); inconclusive means small, poorly fitted or top-dose-only effect, or effect the other way, or a change in a side signal; inactive means flat fitted curve, though single readings scatter; the % refers to the signal ratio. Where the call is inconclusive, the potency comes from a doubtful curve fit.
On the % scale 0 is the no-effect control and ±100 the full control effect; potency means the concentration at half of the fitted maximal effect.

Assay: qHTS Assay for Modulators of Lamin A Splicing
Details: HeLa LMNA splicing GFP/RFP minigene ratio, 48 h; ratio change, negative = inhibition: at 46.1 µM (top of the series) unless noted
In short: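 S3 HeLa cells stably expressing lamin A-EGFP splicing minigene plus DsRed2, 600 cells/well, 48 h compound exposure at 37C. Laser-scanning cytometry; analysed as GFP (500-530 nm)/RFP (575-640 nm) total intensity ratio; 0.5% DMSO vehicle.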
In the case of `Cc1ccc(CNC(=O)Cn2c(=O)oc3ccccc32)o1`, the ratio change, negative = inhibition is reported as inconclusive: 36%.
For `O=C(O)C12CC3CC(C1)CC(n1ncc(NCc4ccccc4)c(Cl)c1=O)(C3)C2`, the ratio change, negative = inhibition was inconclusive: 12.9% [at 46 µM].
In the case of `Cc1cccc(N2CCN(C(=O)c3noc4c3CCCCC4)CC2)c1C`, the ratio change, negative = inhibition is reported as inconclusive: -14.6% [at 46 µM].
With `Cc1ccc(-n2ncc(C(=O)Nc3cc(Cl)ccc3Cl)c2C2CCNCC2)cc1` the ratio change, negative = inhibition was inconclusive: -8.94% [at 46 µM].
In the case of `CCN(c1ccccc1)S(=O)(=O)c1ccc(Cl)c(NC(=O)CSc2ncn[nH]2)c1`, the “ratio change, negative = inhibition” value is reported as inactive: -12.6%.
With `Cc1ccc(NC(=S)Nc2ccc(OC(F)F)c(Cl)c2)cc1Cl` the ratio change, negative = inhibition was inconclusive: -21.2%.
For `N#CC1=C(N)Oc2cc(N)ccc2C1C1CCCCC1` (stereo not given), the ratio change, negative = inhibition was inconclusive: -31.1%.
With `Cc1cc(C)c(NS(=O)(=O)c2ccc(-c3coc(C)n3)cc2)c(C)c1` the “ratio change, negative = inhibition” value was inactive: -0.402% [at 46 µM].
With `Cc1cc(NS(=O)(=O)c2ccc3c(c2)OCCO3)no1` the ratio change, negative = inhibition was inconclusive: 21% [at 46 µM].
In the case of `Oc1ccc(-c2nc3ccc4ccccc4c3c3c2CCC3)cc1O`, the Potency is reported as inconclusive: 20 µM [inhibitor, single point].
In the case of `Cc1ccc(-n2nc(C)c(/C=N/NC(=O)c3cccnc3)c2Cl)cc1`, the ratio change, negative = inhibition is reported as inconclusive: 15.6%.
For `CCOC(=O)C1=C(c2ccccc2)NC(=O)NC1c1ccc(N(C)C)cc1` (stereo not given), the ratio change, negative = inhibition was inconclusive: -0.891%.
In the case of `N#Cc1c2c(c(-c3ccccc3Cl)[nH]c1=S)CCCC2`, the ratio change, negative = inhibition is reported as inconclusive: -12.3% [at 46 µM].
With `Cc1ccc2sc(N(CCCN(C)C)C(=O)c3ccc(Br)s3)nc2c1C` the ratio change, negative = inhibition was inconclusive: 47.9% [at 46 µM].
With `CCOC(=O)C1(C)/C(=N/Nc2ccc(Cl)cc2)C(=O)C(=O)N1c1ccccc1` (stereo not given) the “ratio change, negative = inhibition” value was inactive: 14.6%.
In the case of `Cc1cc(C)nc(/N=C(\N)Nc2ccc(S(N)(=O)=O)cc2)n1`, the ratio change, negative = inhibition is reported as inconclusive: -35.9% [at 46 µM].
With `CCOC(=O)c1ccc2ncc(C(=O)OCC)c(Nc3ccc(N4CCOCC4)cc3)c2c1` the Potency was inconclusive: 35.5 µM [inhibitor, single point].
With `Cc1ccccc1NC(=O)Cn1cnc2c(oc3nc4c(cc32)COC(C)(C)C4)c1=O` the “ratio change, negative = inhibition” value was inactive: -4.12%.
With `CCCCN(CCCC)S(=O)(=O)c1ccc(NC(=O)CN2CCOCC2)cc1` the ratio change, negative = inhibition was inconclusive: 34.2%.
With `O=C(CCc1ccccc1)NC1CC(=O)N(c2cccc(F)c2)C1` (stereo not given) the “ratio change, negative = inhibition” value was inactive: 26.9% [at 46 µM].
For `Cc1cc(C)c(C)c(S(=O)(=O)NCC(=O)NCc2ccco2)c1C`, the ratio change, negative = inhibition was inconclusive: 12.1%.
In the case of `CCOc1ccc(CNC(=O)C2CCCN(S(C)(=O)=O)C2)cc1OC` (stereo not given), the “ratio change, negative = inhibition” value is reported as inactive: -1.27%.
In the case of `CCCn1c(=O)c(C(=O)NCc2ccco2)c(O)c2ccccc21`, the ratio change, negative = inhibition is reported as inconclusive: 7.87% [at 46 µM].
With `COc1cccc(N2CCN(C(=O)c3cnn(-c4ccccc4Cl)c3C3CCN(C(=O)OC(C)(C)C)CC3)CC2)c1` the ratio change, negative = inhibition was inconclusive: 12% [at 46 µM].
With `C/C(=N\NC(=O)c1cc(-c2cccs2)nc2ccccc12)c1ccccn1` the ratio change, negative = inhibition was inconclusive: -0.844% [at 46 µM].
For `O=C(NC(=S)Nn1cnc2c(cnn2-c2ccccc2)c1=O)c1ccccc1`, the “ratio change, negative = inhibition” value was inactive: -13.7%.
For `CC(=O)Nc1ccc(S(=O)(=O)Nc2nnc(CC(C)(C)C)s2)cc1`, the “ratio change, negative = inhibition” value was inactive: 10.7% [at 46 µM].
In the case of `COc1ccc(N2C(=O)C3CC(C)=C(C)CC3C2=O)c(OC)c1` (stereo not given), the “ratio change, negative = inhibition” value is reported as inactive: 0.491%.
With `O=C(c1ccc2c(c1)N(Cc1cccc(Cl)c1)C(=O)c1ccccc1S2=O)N1CCC(Cc2ccccc2)CC1` (stereo not given) the ratio change, negative = inhibition was inconclusive: -31.9% [at 46 µM].
In the case of `Cc1ccc(S(=O)(=O)N2CN(Cc3ccco3)c3nc4ccccc4nc32)cc1C`, the ratio change, negative = inhibition is reported as inconclusive: -32.9%.
In the case of `O=C(CN(Cc1ccccc1)C(=O)CSc1nnc(COc2ccccc2)o1)NC1CCCC1`, the “ratio change, negative = inhibition” value is reported as inactive: -1.59%.
For `Cc1ccc2[nH]c(=O)c(CN(CCCN3CCOCC3)C(=O)Nc3ccc(Cl)cc3)cc2c1`, the ratio change, negative = inhibition was inconclusive: 12% [at 46 µM].
For `CSc1nnc2c(n1)OC(c1ccccn1)N(C(C)=O)c1ccccc1-2` (stereo not given), the “ratio change, negative = inhibition” value was inactive: -1.71% [at 46 µM].
With `COc1ccc(OC)c(NC(=O)CSC2=Nc3ccccc3C3=NC(CC(=O)NCCc4ccccc4)C(=O)N23)c1` (stereo not given) the ratio change, negative = inhibition was inconclusive: 0.104% [at 46 µM].
In the case of `Cc1ccc(NC(=O)C(=O)NCCN2CCN(S(C)(=O)=O)CC2)cc1C`, the ratio change, negative = inhibition is reported as inconclusive: 7.03% [at 46 µM].
With `Oc1c(C(c2ccccc2)N2CCCC2)sc2nc(-c3ccco3)nn12` (stereo not given) the ratio change, negative = inhibition was inconclusive: 10.8% [at 46 µM].
For `CC1CCCN(CCOCCSc2ccccc2)C1` (stereo not given), the “ratio change, negative = inhibition” value was inactive: 10.4%.
In the case of `COC(=O)c1c(NC(=O)COC(=O)Cn2cnc3ccccc32)sc2c1CCCC2`, the “ratio change, negative = inhibition” value is reported as inactive: -13.3%.
With `CCN1CCN(C(c2ccccc2Cl)c2sc3nc(-c4ccco4)nn3c2O)CC1` (stereo not given) the ratio change, negative = inhibition was inconclusive: -6.53% [at 46 µM].
For `CC(C)Oc1ccc(C(=O)NCC(c2ccc(N(C)C)cc2)N2CCc3ccccc32)cc1` (stereo not given), the Potency was inconclusive: 11.2 µM [inhibitor, partial curve].
